Measured values from patent US12115209B2, “ROMO1-derived antimicrobial peptides including lysine substitution and variants thereof” (KOREA UNIVERSITY RESEARCH AND BUSINESS FOUNDATION, priority 2019, dated 2024).
Part of at least one peptide drawing is inferred or uncertain, most often the ends. No end group written: not given here.

Experiments:
Format in all cases: cell-based
[1] = tested on: Pseudomonas aeruginosa (ATCC 27853); assay: Minimum bactericidal concentration (MBC) assay; conditions: Tables 11-21, no unit printed
Method: (§1) First, each of Pseudomonas aeruginosa (ATCC 27853) and Staphylococcus aureus (ATCC 29213) was cultured in 3% (w/v) TSB (tryptic soy broth) liquid medium at 37° C. and 200 rpm for 4 hours, and then further cultured under the same conditions for 3 hours to a concentration of 5×10^6 CFU/ml. Strain solutions were prepared by diluting each of the further cultured strains with SP (sodium phosphate; 10 mM sodium phosphate, 1% TSB) buffer to a final concentration of 2×10^5 CFU/ml.
(§2) Then, each peptide at varying concentrations (0 μg/ml to 300 μg/ml) was dispensed into each well of a 96-well microplate, and 100 μl (1×10^5 CFU/ml) of each of the prepared strain solutions was added thereto, mixed therewith, and allowed to react with the peptide in an incubator at 37° C. for 1 hour.
(§3) In addition, 30 g/L of TS (tryptic soy) and 15 g/L of agar were dissolved in distilled water and sterilized, and then 25 ml of the solution was poured onto a 100 mm round plate and solidified at room temperature for one day or more, thereby preparing a TS agar plate. 10 μl of each reaction solution of the peptide and the strain was plated on the TS agar plate at a constant size, and incubated in an incubator at 37° C. for 18 hours, and then colony formation on the plate was checked. […]

[2] = tested on: Staphylococcus aureus (ATCC 29213); assay: Minimum bactericidal concentration (MBC) assay; conditions: Tables 11-21, no unit printed
Method: as §1, §2, §3

[3] = tested on: Methicillin-resistant Staphylococcus aureus (MRSA, ATCC 33591); assay: Minimum bactericidal concentration (MBC) assay; conditions: Tables 11-21, no unit printed
Method: as §1, with “2×10^5 CFU/ml. […]” for “2×10^5 CFU/ml.”
In addition, 30 g/L of TS (tryptic soy) and 15 g/L of agar were dissolved in distilled water and sterilized, and then 25 ml of the solution was poured onto a 100 mm round plate and solidified at room temperature for one day or more, thereby preparing a TS agar plate. 10 μl of each reaction solution of the peptide and the strain was plated on the TS agar plate at a constant size, and incubated in an incubator at 37° C. for 18 hours, and then colony formation on the plate was checked.
Specifically, each type of bacteria was cultured in 3% (w/v) TSB (tryptic soy broth) liquid medium at 37° C. and 200 rpm for 4 hours, and then further cultured under the same conditions for 3 hours to a concentration of 5×10^6 CFU/ml. Strain solutions were prepared by diluting each of the further cultured strains with SP buffer to a final concentration of 2×10^5 CFU/ml. […]

CRPA = assay: Minimum bactericidal concentration (MBC) assay; conditions: Tables 11-21, no unit printed
[4] = tested on: Pseudomonas aeruginosa, Staphylococcus aureus, CRPA, MRSA; assay: Increase in antibacterial activity (MBC) compared with KU-5878; conditions: mark = antibacterial activity increased compared with KU-5878

Which MBC Pseudomonas aeruginosa [1] does the source give for KKMMKKGGKFGTFMAIGMGIR [KU-5878-K4] here?
Its MBC Pseudomonas aeruginosa is 4 µg/mL.

And the MBC Staphylococcus aureus [2]?
The MBC Staphylococcus aureus was 3 µg/mL.

And the MBC MRSA [3]?
The MBC MRSA was 4 µg/mL.

What about the MBC CRPA (CRPA) of the same sequence?
The MBC CRPA was 3 µg/mL.

And the Increase in activity [4]?
The Increase in activity was “◯”.
